Measured values as given in EP4772530A1 (Mainline Biosciences (Shanghai) Co., Ltd., priority 2023, dated 2025).

Tested on: not listed separately
Experiment: general procedure: Fmoc solid-phase peptide synthesis; Rink Amide-AM Resin, 0.2 mmol/g; DIC and HOBt
Settings: conjugation step, HPLC and MS

Compound	final purity (method not given)
PEPTIDE1{[PEG6].C.[PEG6].R.R.L.F.C.Y.[dW].K.T.C.T.W.R.D.[am]}|CHEM1{[MC-Gly-Gly-Phe-Gly-NH-CH2-Dxd]}$PEPTIDE1,PEPTIDE1,8:R3-13:R3|PEPTIDE1,CHEM1,2:R3-1:R1$$$V2.0	greater than 90%
PEPTIDE1{[PEG6].C.[PEG6].R.R.L.F.C.Y.[dW].K.T.C.T.W.R.D.[am]}|CHEM1{[MC-Val-Cit-PABC-MMAE]}$PEPTIDE1,PEPTIDE1,8:R3-13:R3|PEPTIDE1,CHEM1,2:R3-1:R1$$$V2.0	greater than 90%
PEPTIDE1{[ac].C.[AEEA].[AEEA].[AEEA].R.R.L.F.C.F.[dW].K.T.C.T.W.R.D.[am]}|CHEM1{[MC-Val-Cit-PABC-MMAE]}$PEPTIDE1,PEPTIDE1,10:R3-15:R3|PEPTIDE1,CHEM1,2:R3-1:R1$$$V2.0	greater than 90%
PEPTIDE1{[ac].C.[PEG6].K.K.[PEG6].R.R.L.F.C.Y.[dW].K.T.C.T.W.R.D.[am]}|PEPTIDE2{[ac].C.[PEG6]}|PEPTIDE3{[ac].C.[PEG6]}|CHEM1{[MC-Gly-Gly-Phe-Gly-NH-CH2-Dxd]}|CHEM2{[MC-Gly-Gly-Phe-Gly-NH-CH2-Dxd]}|CHEM3{[MC-Gly-Gly-Phe-Gly-NH-CH2-Dxd]}$PEPTIDE1,PEPTIDE1,11:R3-16:R3|PEPTIDE1,PEPTIDE2,4:R3-3:R2|PEPTIDE1,PEPTIDE3,5:R3-3:R2|PEPTIDE1,CHEM1,2:R3-1:R1|PEPTIDE2,CHEM2,2:R3-1:R1|PEPTIDE3,CHEM3,2:R3-1:R1$$$V2.0	greater than 90%
PEPTIDE1{[ac].C.[PEG6].R.R.L.F.C.Y.[dW].K.T.C.T.W.R.D.[am]}|CHEM1{[MC-Gly-Gly-Phe-Gly-NH-CH2-Dxd]}$PEPTIDE1,PEPTIDE1,8:R3-13:R3|PEPTIDE1,CHEM1,2:R3-1:R1$$$V2.0	greater than 90%
PEPTIDE1{[ac].C.[PEG6].R.R.L.F.C.Y.[dW].K.T.C.T.W.R.D.[am]}|CHEM1{[MC-Val-Cit-PABC-MMAE]}$PEPTIDE1,PEPTIDE1,8:R3-13:R3|PEPTIDE1,CHEM1,2:R3-1:R1$$$V2.0	greater than 90%

Same assay, conditions: conjugation step, HPLC and MS, one disulfide bridge

Compound	final purity (method not given)
Ac-Cys(MC-Val-Cit-PABC-MMAE)-AEEA-Arg-Arg-Leu-Phe-[Cys-Tyr-D-Trp-Lys-Thr-Cys]-Thr-Trp-Arg-Asp-NH2	greater than 90%
Ac-Cys(MC-betaglucuronide-MMAE)-AEEA-AEEA-AEEA-Arg-Arg-Leu-Phe-[Cys-Tyr-D-Trp-Lys-Thr-Cys]-Thr-Trp-Arg-Asp-NH2	greater than 90%
Cys(MC-Val-Cit-PABC-MMAE)-AEEA-Arg-Arg-Leu-Phe-[Cys-Tyr-D-Trp-Lys-Thr-Cys]-Thr-Trp-Arg-Asp-NH2	greater than 90%
Cys(MC-Val-Cit-PABC-MMAE)-Glu-Glu-Glu-AEEA-Arg-Arg-Leu-Phe-[Cys-Tyr-D-Trp-Lys-Thr-Cys]-Thr-Trp-Arg-Asp-NH2	greater than 90%

Tested on: NCI-H69
Experiment: Cell killing in NCI-H69 by CGT (CellTiter-Glo)
Assay type: cell-based
Settings: NCI-H69, 96 h; 4-parameter fit
Description: Approximately 5 µL of the PDC was added to the corresponding wells of the plate, and compared with DMSO (control, without the PDC of the present application), PTX, MMAE, and Dxd wells. The final concentration of DMSO in each well was 0.2%; • (5) The cells were incubated in a 5% CO2 incubator at 37°C for 96 h; • (6) The cell culture plate was equilibrated to room temperature, and 50 µL of CellTiter-Glo® Reagent was added to each well; • (7) The plate was placed on a shaker for 2 min to ensure complete cell lysis; • (8) After mixing, the plate was placed at room temperature to react for 10 min. The fluorescence value (in RLU) was read when the signal became stable. • c) Data analysis • (1) The inhibition (Inh %) relative to the DMSO control was calculated as follows: Inhibition (Inh%)= 100 -(RLU of compound - RLU of DMSO control)/ (RLU of DMSO control - RLU of blank)*100% • (2) The data were analyzed using Graphpad 5.0 software. A 4-parameter equation was fitted to generate a concentration-response curve to obtain the IC50. Table 3: Test Results of Cell Killing in NCI-H69

Compound	Hillslope (Curve Gradient/Slope)
CC[C@@]1(O)C(=O)OCc2c1cc1n(c2=O)Cc2c-1nc1cc(F)c(C)c3c1c2[C@@H](NC(=O)CO)CC3 [Dxd]	0.50
CC[C@H](C)[C@@H]([C@@H](CC(=O)N1CCC[C@H]1[C@H](OC)[C@@H](C)C(=O)N[C@H](C)[C@@H](O)c1ccccc1)OC)N(C)C(=O)[C@@H](NC(=O)[C@H](C(C)C)N(C)C(=O)OCc1ccc(NC(=O)[C@H](CCCNC(N)=O)NC(=O)[C@@H](NC(=O)CCCCCN2C(=O)CC(SC[C@H](NC(C)=O)C(=O)NCCOCCOCC(=O)N[C@@H](CCCNC(=N)N)C(=O)N[C@@H](CCCNC(=N)N)C(=O)N[C@@H](CC(C)C)C(=O)N[C@@H](Cc3ccccc3)C(=O)N[C@H]3CSSC[C@@H](C(=O)N[C@H](C(=O)N[C@@H](Cc4c[nH]c5ccccc45)C(=O)N[C@@H](CCCNC(=N)N)C(=O)N[C@@H](CC(=O)O)C(N)=O)[C@@H](C)O)NC(=O)[C@H]([C@@H](C)O)NC(=O)[C@H](CCCCN)NC(=O)[C@@H](Cc4c[nH]c5ccccc45)NC(=O)[C@H](Cc4ccc(O)cc4)NC3=O)C2=O)C(C)C)cc1)C(C)C (stereo partly drawn) [Example 1, Cys(MC-Val-Cit-PABC-MMAE)-AEEA-Arg-Arg-Leu-Phe-[Cys-Tyr-D-Trp-Lys-Thr-Cys]-Thr-Trp-Arg-Asp-NH2]	1.53
CC[C@H](C)[C@@H]([C@@H](CC(=O)N1CCC[C@H]1[C@H](OC)[C@@H](C)C(=O)N[C@H](C)[C@@H](O)c1ccccc1)OC)N(C)C(=O)[C@@H](NC(=O)[C@H](C(C)C)N(C)C(=O)OCc1ccc(O[C@@H]2O[C@H](C(=O)O)[C@@H](O)[C@H](O)[C@H]2O)c(NC(=O)CCNC(=O)CCCCCN2C(=O)CC(SC[C@H](NC(C)=O)C(=O)NCCOCCOCC(=O)NCCOCCOCC(=O)NCCOCCOCC(=O)N[C@@H](CCCNC(=N)N)C(=O)N[C@@H](CCCNC(=N)N)C(=O)N[C@@H](CC(C)C)C(=O)N[C@@H](Cc3ccccc3)C(=O)N[C@H]3CSSC[C@@H](C(=O)N[C@H](C(=O)N[C@@H](Cc4c[nH]c5ccccc45)C(=O)N[C@@H](CCCNC(=N)N)C(=O)N[C@@H](CC(=O)O)C(N)=O)[C@@H](C)O)NC(=O)[C@H]([C@@H](C)O)NC(=O)[C@H](CCCCN)NC(=O)[C@@H](Cc4c[nH]c5ccccc45)NC(=O)[C@H](Cc4ccc(O)cc4)NC3=O)C2=O)c1)C(C)C (stereo partly drawn) [Example 4, Ac-Cys(MC-betaglucuronide-MMAE)-AEEA-AEEA-AEEA-Arg-Arg-Leu-Phe-[Cys-Tyr-D-Trp-Lys-Thr-Cys]-Thr-Trp-Arg-Asp-NH2] (I: Ac-C[AEEA][AEEA][AEEA]RRLFCY[dW]KTCTWRD-NH2 / II: [X1][NMeV]V[Dil][Dolaproine]-X2; linker I:1-II:N via X3; disulfide I:9-I:14)	1.15
CCC(C)C(C(CC(=O)N1CCCC1C(OC)C(C)C(=O)NC(C)C(O)c1ccccc1)OC)N(C)C(=O)C(NC(=O)C(NC)C(C)C)C(C)C (stereo not drawn) [MMAE]	0.97
CC(=O)O[C@H]1C(=O)[C@@]2(C)[C@H]([C@H](OC(=O)c3ccccc3)[C@]3(O)C[C@H](OC(=O)[C@H](O)[C@@H](NC(=O)c4ccccc4)c4ccccc4)C(C)=C1C3(C)C)[C@]1(OC(C)=O)CO[C@@H]1C[C@@H]2O [PTX]	2.18

For part of these data: One purity is given for all peptides; the source may state it once. For part of these data: Strings that start with PEPTIDE1 are HELM notation: dots part the residues, brackets hold end groups and non-standard residues. *1 amine or outer side, *2 acyl side, *3 side chain or, on linkers, in order; H or OH if unused. Where a SMILES comes first, the peptide text is derived from it. Bridges are numbered along the chain shown (N, C = ends). Roman numbers before positions name the chains, in order. [ ]: non-standard residue; d: D form. The star is where a group is joined. X1 = O=C(O)[C@H]1O[C@@H](Oc2ccc(COC(=O)[*:2])cc2N[*:1])[C@H](O)[C@@H](O)[C@@H]1O; Dolaproine = CO[C@@H]([C@@H]1CCCN1)[C@@H](C)C(=O)O; X3 = O=C(CCCCCN1C(=O)CC([*:1])C1=O)NCCC(=O)[*:2]; Dil = CC[C@H](C)[C@H](NC)[C@@H](CC(=O)O)OC; X2 = C[C@@H](N*)[C@@H](O)c1ccccc1; NMeV = CN[C@H](C(=O)O)C(C)C; AEEA = NCCOCCOCC(=O)O
